Measured values published in publication PMC6985666.

Molecular target: ATP1A3 (Na+/K+-ATPase alpha 3 subunit) (human (endogenous in U87)) (UniProt P13637)
Assay: affinity purification with mass spectrometry; immunoprecipitation-mass spectrometry (IP-MS) of ATP1A3 complexes from whole-cell lysates of U87 cells

binding: binds
Substance: aquaporin-4 (AQP4) (from UniProt P55087 1-323)

These are yes or no findings as the source states them, for the method shown. In cells and extracts the contact can be indirect. Here binding means that the protein was enriched with, or labelled near, the bait; the list need not be complete.
